Out of some 220,000 compounds screened, about 770 (0.35%) were called active. This list was built around the results that the source calls inconclusive (neither active nor inactive); the mix of calls is not that of the screen. Rule as the data show it: active = binding response below about 49% or above about 150%; inconclusive = no clear call, values can overlap the other calls; inactive = in between.
molecular target: Guanine nucleotide-binding protein G(o) subunit alpha (Homo sapiens) (UniProt P09471); assay: RGS7-Galphao binding modulators, primary screen, biochemical, multiplexed bead flow cytometry (AID 1439); details: at 10 µM, actives lie on both sides;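 also: fluorescent Galphao held in activated GDP-AlF4 state binding bead-coupled RGS7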

Amino acid sequences for entries named in this document (tags omitted).
UniProt P09471, whole entry, looked up: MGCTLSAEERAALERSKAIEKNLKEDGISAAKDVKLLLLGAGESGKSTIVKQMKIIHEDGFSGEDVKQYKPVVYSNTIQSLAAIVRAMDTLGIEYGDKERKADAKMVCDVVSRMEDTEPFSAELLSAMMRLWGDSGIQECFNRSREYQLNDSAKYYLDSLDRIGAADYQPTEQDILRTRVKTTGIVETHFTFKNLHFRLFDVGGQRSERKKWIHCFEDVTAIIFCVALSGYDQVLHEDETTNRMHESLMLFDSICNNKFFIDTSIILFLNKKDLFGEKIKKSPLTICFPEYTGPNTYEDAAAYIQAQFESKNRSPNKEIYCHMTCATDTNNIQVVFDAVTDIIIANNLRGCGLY

Structure (SMILES) | binding response (% of control)
COc1ccc(/C=N/NC(=O)c2ccncc2)cc1CN1CCOCC1 | inconclusive: 96.2%
CCNC(=S)N/N=C/c1sc(N2CCCCC2)nc1-c1cccs1 | inactive: 98.2%
CCOc1ccc(NCc2cc3cc(OC)ccc3[nH]c2=O)cc1 | inconclusive: 242%
COC(=O)c1cc(NC(=O)c2cc(-c3ccccc3Cl)oc2C(F)(F)F)ccc1N1CCOCC1 | inconclusive: 112%
O=C(c1cc(Sc2ccc(Cl)cc2)nc2ccccc12)N1CCN(c2ccccn2)CC1 | inconclusive: 83.7%
CSC(=NNC(=O)c1ccc(O)cc1)SC | inactive: 103%
O=C(Nc1cc(=O)[nH]c2nc(-c3ccc(Cl)cc3)nn12)c1ccccc1 | inconclusive: 84%
CS(=O)(=O)NN1C(=O)c2ccccc2NC12CCCC2 | inconclusive: 99%
CCc1ccccc1NC(=O)c1ccc(NS(C)(=O)=O)cc1 | inconclusive: 121%
O=C(N/N=C\c1cn[nH]c1-c1ccc(Cl)cc1)c1cccs1 | inconclusive: 244%
Cc1cc(=O)n2[nH]nnc2n1 | inconclusive: 113%
O=S(=O)(Nc1nc2ccccc2nc1Cl)c1ccc(F)cc1 | inconclusive: 50.9%
CCOc1ccccc1C(=O)Nc1cc(OC)ccc1OC | inactive: 96.2%
COc1ccc(NS(=O)(=O)c2cc(NC(=O)c3nn(C)c(=O)c4ccccc34)ccc2OC)cc1 | inconclusive: 103%
Nc1ccc(SCc2nc3cccc4c3n2CCC4)cc1 | inconclusive: 108%
O=C(NC1CCc2ccccc21)c1cc(COc2c(F)cccc2F)on1 (stereo not drawn) | inconclusive: 118%
COc1cccc2nc3cc(C)c(C)cc3nc12 | inconclusive: 97.2%
CCC(=O)c1ccc2c(c1)OCCO2 | inconclusive: 64.5%
CN(c1ccccc1)S(=O)(=O)c1ccc(Cl)c(C(=O)OCC(=O)NCc2ccco2)c1 | inconclusive: 114%
COc1ccccc1NC(=S)N(CCN1CCOCC1)Cc1ccccc1F | inconclusive: 129%
COc1ccc(NC(=O)/C(=C/c2cccs2)NC(=O)c2ccco2)cc1 | inconclusive: 152%
CC1(C)C(=O)Nc2ccccc2N1C(=O)COC(=O)c1cc(S(=O)(=O)N2CCOCC2)ccc1F | inconclusive: 71%
COc1cc(C(=O)c2cocc2C(=O)c2ccc3c(c2)OCO3)cc(OC)c1OC | inconclusive: 105%
COc1ccc(C(=O)O)cc1S(=O)(=O)NC(C)(C)C | inconclusive: 111%

A draw from above in order of heavy-atom count, descending:
Structure (SMILES) | binding response (% of control)
COC(=O)c1cc(NC(=O)c2cc(-c3ccccc3Cl)oc2C(F)(F)F)ccc1N1CCOCC1 | inconclusive: 112%
CN(c1ccccc1)S(=O)(=O)c1ccc(Cl)c(C(=O)OCC(=O)NCc2ccco2)c1 | inconclusive: 114%
CS(=O)(=O)NN1C(=O)c2ccccc2NC12CCCC2 | inconclusive: 99%
COc1ccc(C(=O)O)cc1S(=O)(=O)NC(C)(C)C | inconclusive: 111%

Following part.

Structure (SMILES) | binding response (% of control)
COc1cccc(CC(=O)Nc2nc3ccccc3[nH]2)c1 | inconclusive: 96.1%
O=[N+]([O-])c1ccc(C(=S)N2CCCC2)cc1 | inconclusive: 95.3%
O=C(CSc1nnc(-c2ccc(F)cc2)o1)Nc1ccc(S(=O)(=O)N2CCCC2)cc1 | inactive: 101%
COc1cc2oc3cc(C)oc(=O)c3c2cc1OC | inconclusive: 130%
CCN(c1ccccc1)S(=O)(=O)c1ccc(Cl)c(NC(=O)COC(=O)C2CC2C)c1 (stereo not drawn) | inconclusive: 126%
CCc1ccc(C2CC(=O)N(c3cccc(F)c3)C3=C2C(=O)OC3)cc1 (stereo not drawn) | inactive: 96.6%
CCN(CC(=O)Nc1ccccc1SC)Cc1nc2ccccc2c(=O)[nH]1 | inconclusive: 133%
CN(C)S(=O)(=O)c1cc(NC(=O)COC(=O)Cc2ccc(Br)cc2)ccc1Cl | inactive: 82.6%
Cc1ccc(NC(=S)N2CCN(c3nccc(C(F)(F)F)n3)CC2)c(C)c1 | inconclusive: 96.3%
O=C(O)c1ccc(N/N=C/C=C/c2ccccc2)cc1 | inconclusive: 99.2%
COC(=O)Cc1c(C)nc2nc(NCc3ccc(Cl)cc3)[nH]n2c1=O | active: 151% [activator]
CCCCC(CC)CNC(=O)c1ncn[nH]1 (stereo not drawn) | inactive: 98.2%
CC(C)(C)c1ccc(-c2cn(-c3ccc(Br)cc3)c3[n+]2CCCS3)cc1 | inactive: 96.2%
O=C(CNC(=O)C1CCCCC1)OCn1nnc2ccccc2c1=O | inconclusive: 90.4%
CC(=O)C(Cc1ccccc1)NC(=O)CN1CCN(Cc2ccccc2)CC1 (stereo not drawn) | inconclusive: 82.9%
C=CCn1c(Cn2nnc3ccccc32)nnc1SCC(=O)N/N=C/c1cc(Br)cc(OC)c1O | active: -19.4%
COc1ccc(CCNC(=O)CSc2nnnn2-c2ccccc2OC)cc1OC | inactive: 99%
O=C(Nc1ccccc1-c1ccccc1)C1CCCC1 | inconclusive: 83.8%
Cc1ccc(NC(=O)C[n+]2cc(-c3ccccc3)n3c2CCC3)cc1 | inconclusive: 70.6%
CC(C)(C)c1ccccc1OCCCCCn1ccnc1 | inactive: 97.4%
Cc1nn(-c2ccccc2)c(C)c1[N+](=O)[O-] | inactive: 98.8%
CC(=O)Nc1ccc(NC(=O)C(C)OC(=O)CNS(=O)(=O)c2cccc(Cl)c2)cc1 (stereo not drawn) | inconclusive: 102%
O=c1cc(-c2ccccc2)nc2cc(-c3ccco3)[nH]n12 | inconclusive: -1.76%
Cc1ccc(OCCN2C(=O)c3ccccc3C2=O)cc1 | inactive: 91.4%

Structure (SMILES) | binding response (% of control)
CCOc1ccc(CN(C)CC(=O)Nc2cccc(C)c2)cc1OC | inconclusive: 105%
CC(/C=C/c1ccccc1)=N/NC(=O)CNC(=O)c1ccccc1F | inactive: 97.3%
CC(C)(C)C(=O)/C=c1\[nH]c(=O)/c(=C\c2ccccc2F)s1 | inconclusive: 93%
Cc1ccc(-n2nnc(-c3ccnc4ccccc34)n2)cc1 | inactive: 130%
Cc1ccc(NC(=O)c2cc3c(s2)CCCC3)cc1 | inconclusive: 79.2%
O=C(Nc1ccc(Oc2ccccc2)cc1)C1CCCO1 (stereo not drawn) | inactive: 92.7%
O=C(Cc1csc(N2CCOCC2)n1)N/N=C/c1ccccc1C(=O)O | inconclusive: 106%
CC(=O)Nc1ccc(OCCOc2ccc([N+](=O)[O-])cc2)cc1 | inconclusive: 127%
Cc1cc(-c2nc3ncccc3o2)ccc1NC(=S)NC(=O)C(C)C | inconclusive: 89.1%
N#Cc1c(Nc2ccccc2Cl)s[nH]c1=O | inconclusive: 82.2%
O=C1C2C3C=CC(C2C(=O)N1C1CCCCC1)C1C2C(=O)N(C4CCCCC4)C(=O)C2C31 (stereo not drawn) | inactive: 99.9%
CCN1CCC(Nc2ccnc3cc(Cl)ccc23)CC1 | inconclusive: 25.1%
COc1cccc(C(=O)Nc2c(C)n[nH]c2C)c1 | inactive: 116%
CN(C)c1ccc(-c2cccc(C3CC=CC4C3C(=O)N(Cc3ccccc3)C4c3ccc(C(F)(F)F)cc3)c2)cc1 (stereo not drawn) | inconclusive: 108%
Cc1ccc(NC(=O)c2nc[nH]c2C(=O)NCC(=O)OC(C)(C)C)cc1 | inconclusive: 89.5%
Cc1ccc(C)c(OCc2ccc(C(=O)NN)o2)c1 | inconclusive: -1.61%
C=CCN(c1ccc(C(=O)Nc2ccc(C)c(C)c2)cc1)S(C)(=O)=O | inactive: 99.3%
CC1(C)CC2CC(C)(CN2C(=S)Nc2ccccc2F)C1 (stereo not drawn) | inconclusive: 84%
COC(=O)c1ccc(-c2ccc(OC)c([C@H]3[C@H]4C=CC[C@@H](C)[C@@H]4C(=O)N3Cc3ccccc3)c2)cc1 | inconclusive: 101%
CCCC1c2ccsc2CCN1C(=S)NC (stereo not drawn) | inconclusive: 118%
Nc1cccnc1Oc1ccccc1F | inconclusive: 117%
Clc1cccc(Sc2ccc(-c3ccccn3)s2)c1 | inconclusive: -593%
COc1ccccc1N1CC=C(c2cccc([N+](=O)[O-])c2)NC1=O | inconclusive: 80.7%
O=c1c2ccccc2nnn1COc1ccc(Cl)cc1Br | inconclusive: 94.6%

Structure (SMILES) | binding response (% of control)
CC(=O)N1CCN(C(=O)CCC(=O)O)CC1 | inconclusive: 88.1%
N#CC(c1ccc(O)cc1)c1ncc(C(F)(F)F)cc1Cl (stereo not drawn) | inconclusive: 88.5%
COc1ccc(-c2cc(C(=O)NNC3=NCCC3)c3c(C)nn(-c4ccccc4)c3n2)cc1 | inconclusive: 79.1%
CS(=O)(=O)c1nc(-c2ccc(F)cc2)cc(C(F)(F)F)n1 | inconclusive: 86.8%
COc1ccc(C(=O)NC(=O)Nc2ncccc2C)cc1 | inactive: 73.7%
CC(C)Cn1c(N)c(C(=O)COC(=O)/C=C/c2cccs2)c(=O)n(C)c1=O | inconclusive: 255%
COc1cccc(OC)c1NC(=O)c1nc2c(nnn2Cc2ccccc2Cl)c(=O)[nH]1 | inconclusive: 110%
O=C(CCC(=O)Nc1ccccc1)NNC(=O)c1cccs1 | inactive: 93.1%
CCn1c(SCC(=O)N2CCN(c3ccccc3)CC2)nnc1-c1ccncc1 | inactive: 101%
O=C(NC(=S)Nc1ccc2c(c1)OCCO2)c1ccccc1F | inconclusive: 78.6%
CC(C)N(Cc1ccccc1)CC(O)COc1ccc(S(=O)(=O)N2CCOCC2)cc1Cl (stereo not drawn) | inconclusive: 104%
O=S(=O)(Nc1cccc2ccccc12)c1cccc2nonc12 | inconclusive: 90.1%
O=C(CSc1cccc[n+]1[O-])NC(=O)c1ccc(OC(F)F)cc1 | inconclusive: 106%
CCOC(=O)c1ccc(NC(=O)c2n[nH]c(=O)c3ccccc23)cc1 | inconclusive: 95.1%
CCNc1nc2cccnc2s1 | inconclusive: 89.2%
CC(C)(C)c1cc[n+](-c2[nH]c(=O)sc2/C=N/NC([S-])=Nc2ccccc2)cc1 | inconclusive: 119%
CN(Cc1nc(Cc2cccc(F)c2)no1)CC1CCOCC1 | inconclusive: 101%
COc1ccc(NC(=O)CC2C(=O)N(c3cccc(OC)c3)C(=O)N2Cc2ccco2)cc1 (stereo not drawn) | inconclusive: 107%
Cc1cccc(/C=N/NC(=O)c2cc(-c3cccnc3)nc3ccccc23)c1 | inconclusive: 100%
O=C1NN=COc2ccccc21 | inactive: 100%
CC(C)CCNC(=O)c1cc(S(=O)(=O)N2CCCCC2)ccc1N1CCOCC1 | inconclusive: 95.5%

Three compounds drawn at random from the list so far:
Structure (SMILES) | binding response (% of control)
CC(=O)N1CCN(C(=O)CCC(=O)O)CC1 | inconclusive: 88.1%
O=C(CSc1cccc[n+]1[O-])NC(=O)c1ccc(OC(F)F)cc1 | inconclusive: 106%
COc1ccc(-c2cc(C(=O)NNC3=NCCC3)c3c(C)nn(-c4ccccc4)c3n2)cc1 | inconclusive: 79.1%

— PubChem BioAssay AID1439 (NMMLSC, 2008)
